Earlier results as cited in patent publication US20240336981A1, “PANELS AND METHODS FOR DIAGNOSING AND TREATING LUNG CANCER” (The Broad Institute, Inc., priority 2021, published 2024).
At least one compound was matched to its structure with a doubt left.

Test system: mouse models of cancer
Conditions: in vivo administration; cited from earlier work

## COc1cc2c(Nc3ccc(Br)cc3F)ncnc2cc1OCC1CCN(C)CC1 [Vandetanib]
  tumor growth and metastasis: inhibited tumor growth and metastasis
